Experimental data as given in patent US3962039A, “Analytical procedure for thyroid hormones” (Center for Laboratory Medicine, priority 1975, dated 1976).

Tested on: T3-binding sites on serum proteins
Experiment: Recovery of triiodothyronine added to charcoal-treated human serum, radioimmunoassay after pepsin-HCl
[1] = 90 nanograms/100 ml added, calculated 125
[2] = 180 nanograms/100 ml added, calculated 215
[3] = 270 nanograms/100 ml added, calculated 305
[4] = 360 nanograms/100 ml added, calculated 395
[5] = 450 nanograms/100 ml added, calculated 485

SMILES: N[C@@H](Cc1cc(I)c(Oc2ccc(O)c(I)c2)c(I)c1)C(=O)O [Triiodothyronine, triiodothyronine]
- Percent Recovery [1]: 94%
- Triiodothyronine Assayed [1]: 118 ng/100 ml
- Percent Recovery [2]: 105%
- Triiodothyronine Assayed [2]: 226 ng/100 ml
- Percent Recovery [3]: 104%
- Triiodothyronine Assayed [3]: 318 ng/100 ml
- Percent Recovery [4]: 94%
- Triiodothyronine Assayed [4]: 370 ng/100 ml
- Percent Recovery [5]: 105%
- Triiodothyronine Assayed [5]: 510 ng/100 ml
- Triiodothyronine Assayed (none added, charcoal-treated human serum): 35 ng/100 ml
